{"source": "patent US9365851B2", "about": "“Spalt-like transcription factor 4 (SALL4) and uses thereof” (National University of Singapore, priority 2011, dated 2016)", "key": {"MCF7 cells": {"system": "MCF7 cells", "experiment": "Cell viability assay (MTT)", "format": "cell-based", "conditions": "MCF7, 48-72 h", "protocol": "Cell viability assay (MTT) (Invitrogen) was performed according to the manufacturer's instructions. Briefly—10000 cells were seeded in 100 ul medium in 96 well plates. The next day cells were treated as indicated on the figures. At the designated time after the treatment 20 ul of 5 mg/ml MTT solution was added to each well. After 3.5 h incubation at 37 C the medium was removed and the reaction was terminated with a solution of 4 mM HCl, 0.1% Nondet P-40 (NP40) all in isopropanol in dark on orbital shaker for […]. at room temperature. The absorbance was read at 590 nm with a reference filter of 620 nm in Spectromax M3 (ABI) spectrophotometer.\nMultiple cell lines with or without SALL4 expression were chosen to test the biological effect(s) of this wt peptide. Wt or its control (Scr or Mut) peptide was delivered into tumor cells at various concentrations, and their effects on cells were evaluated at 48 or 72 hours post treatment by a MTT assay (Manufacture name). […] Since, as proposed herein, wt peptide can compete with SALL4 and release it from recruiting HDAC complex NuRD, the wt peptide would likely work as a HDAC inhibitor. Therefore, as a positive control, TSA, a broad HDAC inhibitor, was used in the same group of experiments along with the wt and Scr peptide."}, "HL-60 cells": {"system": "HL-60 cells", "experiment": "Cell viability assay (MTT/MTS)", "format": "cell-based, human", "conditions": "HL-60, 48-72 h", "protocol": "FIG. 17: SALL4 peptide reduces the viability of leukemic HL-60 cells. HL60 human acute promyelocytic leukemia cells (ATCC), were cultured in RPMI medium with 10% FBS (Invitrogen). 5000 cells/well were seeded in 96 well plate. Peptides: MSRRKQAKPQHI-wt (SEQ ID NO: 1) and MSRRAQAKPQHI-mutant (SEQ ID NO: 6) were synthesized by Biosynthesis Inc. to 85% purity. Peptides and TSA were re-suspended in PBS and added to the final concentration as indicated. WT peptide was re-added 24 hours after the initial addition as indicated. Experiment was performed in triplicate. MTS assay was performed by adding 20 ul of the CellTiter 96® AQueous One Solution Reagent (Promega) directly to the cells in medium, incubating for 2 hours and then recording absorbance at 490 nm with a 96-well plate reader. The quantity of formazan product as measured by the amount of 490 nm absorbance is directly proportional to the number of living cells in culture.\nCell viability assay (MTT) (Invitrogen) was performed according to the manufacturer's instructions. […] The absorbance was read at 590 nm with a reference filter of 620 nm in Spectromax M3 (ABI) spectrophotometer. […]\n(§1) Multiple leukemic and solid tumor cancer cell lines with high or low/no SALL4 expression (FIG. 10A) were chosen to test the biological effect(s) of the wild type peptide. […] Therefore, expression of PTEN was evaluated in AN3CA cells along with other cell lines. […]"}, "SNU-387 cells": {"system": "SNU-387 cells", "experiment": "Cell viability assay (MTT/MTS)", "format": "cell-based, human", "conditions": "SNU-387 (low/no SALL4), 72 h", "protocol": "(§2) Cell viability was determined 72 hours after peptide treatments. Absorbance at 490 nm is directly correlated to cell viability. Wild type functional SALL4 peptide (wt), mutant non-functional SALL4 peptide (Mut.), trichostatin A (TSA), scrambled control peptide (Scr.), wild type peptide+PTEN inhibitor SF1670 (wt+Inh.) were given to the cells at the indicated concentration. PTEN inhibitor concentration was 400 nM. (31C, 31D) Western blot analyses of the effects of peptides on PTEN, AKT, and pAKT expression on SNU-398 (31C) and SNU-387 (31D) cells 72 hours following peptide treatments. 20 μM of wt or Scr. peptide or 100 nM of TSA was used. PTEN inhibitor concentration was 400 nM. (31E) Representative images show NOD/SCID mice transplanted with Scr peptide- and wt peptide-treated SNU-398 cells (left) and the dissected subcutaneous tumors (right). Arrow indicates subcutaneous tumor. […]\n(§3) Cell viability assay (MTT) (Invitrogen) was performed according to the manufacturer's instructions. […] The absorbance was read at 590 nm with a reference filter of 620 nm in Spectromax M3 (ABI) spectrophotometer.\n7000 cells were seeded in each wells of a microtiter plate in 100 μL of complete medium. […] After four hours incubation of the tetrazolium salt, absorbance at 490 nm was read by a microplate reader."}, "HDAC": {"system": "HDAC", "experiment": "HDAC activity assay of peptide pull-down complex (SNU-398 nuclear extracts)", "format": "biochemical, human", "conditions": "compared to IgG control", "protocol": "Assay was performed with the Fluorescent HDAC Assay Kit (Active Motif) having the following modifications: Following the pull down described in Western Blotting section the proteins bound to the beads were eluted in buffer containing 20 mM HEPES (pH 7.5) 350 mM NaCl, 20% glycerol, 1% Igepal CA-630, 1 mM MgCl2, 5 mM DTT and Protease inhibitors (Sigma). The eluates were used as an HDAC enzyme source in an enzymatic reaction for 2 h at 37 C. The HDAC reactions were performed twice on various samples, and each time in triplicate.\nNext tested was whether this wt 12-AA could compete with SALL4 in interacting with NuRD. A hepatocellular carcinoma cell line SNU-398 with abundant SALL4 expression was chosen for the following groups of experiences. Whether the wt 12-AA or its control (Mut and Scr) can bind to HDAC1 and HDAC2, the two NuRD components, was first evaluated. […] The histone deacetylase activity of the peptide pull-down complex was then measured using a Fluorescent Assay kit (Active Motif) (FIG. 1D). […]\nFirst evaluated was whether the wild type peptide or the mutant or scrambled controls could bind to HDAC1 and HDAC2, which comprise part of the NuRD complex 38. […] To test this possibility, the histone deacetylase activity of the peptide pull-down complex was measured using a fluorescent assay kit (FIG. 8C). […]"}, "SNU-398 cells": {"system": "SNU-398 cells", "experiment": "Cell viability assay (MTT/MTS)", "format": "cell-based, human", "conditions": "SNU-398 (high SALL4), 72 h", "protocol": "as §2, with “nM.” for “nM. (31E) Representative images show NOD/SCID mice transplanted with Scr peptide- and wt peptide-treated SNU-398 cells (left) and the dissected subcutaneous tumors (right). Arrow indicates subcutaneous tumor.”\nas §3\nas §1, with “peptide. Wild type or scrambled peptide was delivered into tumor cells at various concentrations, and their effects on cells were evaluated 72 hours post-treatment by the MTS cell viability assay.” for “peptide.”"}}, "note": "At least one peptide structure holds a part that was inferred or is arguable (an end, a ring closure or a residue). No end group written: not given here."}
{"sequence": "MSRRAQAKPQHI [Mut peptide, MSRRAQAKPQHI, reference compound]", "values": [{"measurement": "cell viability", "setting": "MCF7 cells", "result": "remained unaffected"}, {"measurement": "cell viability", "setting": "HL-60 cells", "result": "remained unaffected"}, {"measurement": "cell viability", "setting": "HL-60 cells; listed as mutant peptide", "result": "has no effect on the cell viability"}, {"measurement": "cell viability / number of viable cells", "setting": "SNU-387 cells", "result": "no change in cell viability"}, {"measurement": "HDAC activity of peptide pull-down complex", "setting": "HDAC; listed as Mut", "result": "some residual HDAC activity"}, {"measurement": "HDAC activity of peptide pull-down complex", "setting": "HDAC; listed as mutant", "result": "some residual activity"}, {"measurement": "cell viability / number of viable cells", "setting": "SNU-398 cells", "result": "remained unaffected"}]}
